Reference: the supplement of paper PMC12889115
This is one part of the list. Values are raw readings; no control value is given beside them.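 First-pass screen: polymyxin B was added at a level that permeabilizes the Salmonella outer membrane while sparing the inner membrane. DMSO wells, with and without polymyxin B, defined maximum growth. Because plates differed from one another, each plate's data were ranked separately and the compounds with the lowest OD600 were carried forward as hits.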

Tested on: Salmonella enterica serovar Typhimurium SL1344
Assay: bacterial growth OD600 after 18 h with compound and polymyxin B; higher = more bacterial growth (less inhibition)
Conditions: 50 µM, Mueller-Hinton broth

| SMILES | bacterial growth OD600 (polymyxin B 0.75 µg/mL) | bacterial growth OD600 (polymyxin B 1 µg/mL) |
| --- | --- | --- |
| Cn1ccnc1CN1CCCC(CCc2ccc(F)c(F)c2)C1 (stereo unspecified) | 0.749 |  |
| COc1cc(=O)n2c(c1C(=O)NC(C)c1ccco1)CCN(Cc1ccc(C(C)C)cc1)CC2 (stereo unspecified) | 0.701 |  |
| Cc1c(CC(=O)NCC(F)(F)F)c2c(n1Cc1ccccc1F)CCCC2=O |  | 0.789 |
| Cc1nnc(CN(C)C(=O)CC2(c3ccccc3C)CC(=O)N(Cc3ccccc3)C2=O)o1 (stereo unspecified) | 0.824 |  |
| COc1cc(C(=O)NCc2cccc(SC)c2)ccc1OC1CCN(C(C)=O)CC1 |  | 0.798 |
| CCN1CCN(C2(C(=O)NCCc3cscn3)Cc3ccccc3C2)CC1 | 0.802 |  |
| CC1=C(C(=O)N2CCCC(N3CCN(c4cccc(C(F)(F)F)c4)CC3)C2)OCCO1 (stereo unspecified) |  | 0.97 |
| CCC(C)CC(=O)NCc1nc(-c2ccccc2NC(=O)Cc2ccccc2)oc1C (stereo unspecified) | 0.778 |  |
| CN(Cc1cn(Cc2ccccc2)nc1-c1ccc2c(c1)OCO2)C1CCOC1 (stereo unspecified) |  | 0.843 |
| CN(C)C(=O)CCC(=O)N1CCCC(CCc2ccc(F)c(F)c2)C1 (stereo unspecified) | 0.805 |  |
| CCn1cc(CN2CCC(Oc3cc(OC)ccc3C(=O)NCCOC)CC2)cn1 |  | 1.23 |
| COc1cccc(OCc2cc(C(=O)NCc3nc(C)cs3)n[nH]2)c1 | 0.934 |  |
| CCOC(=O)C1(Cc2cccc(F)c2)CCN(Cc2cc(C(C)C)[nH]n2)CC1 |  | 0.703 |
| CC(C)=CC(=O)N1CCCC(C(=O)c2cccc3ccccc23)C1 (stereo unspecified) |  | 0.639 |
| O=C1O[C@@H]2CN(C3CCSCC3)C[C@@H]2N1CCc1cccc(Cl)c1 |  | 0.949 |
| Cc1ncc(CN2CCCC2C(=O)Nc2ccc(-c3cccc(F)c3)cc2)cn1 (stereo unspecified) |  | 0.86 |

Full records from above.
COc1cc(C(=O)NCc2cccc(SC)c2)ccc1OC1CCN(C(C)=O)CC1 as listed: bacterial growth OD600 (polymyxin B 1 µg/mL): 0.798
Cc1c(CC(=O)NCC(F)(F)F)c2c(n1Cc1ccccc1F)CCCC2=O as listed: bacterial growth OD600 (polymyxin B 1 µg/mL): 0.789

More entries:

| SMILES | bacterial growth OD600 (polymyxin B 0.75 µg/mL) | bacterial growth OD600 (polymyxin B 1 µg/mL) |
| --- | --- | --- |
| O=C(Nc1ccccc1Oc1cccnc1)C1CCCN1C(=O)CC1CC1 (stereo unspecified) |  | 0.992 |
| COc1ccccc1OC1CCN(c2nc3nonc3nc2N2CCOCC2)CC1 |  | 0.744 |
| Cc1ncc2c(c1CNC(=O)Cc1cccs1)CCN(C(=O)c1c(-c3ccccc3)noc1C)C2 | 0.876 |  |
| O=C(C(=O)N1CCc2[nH]nc(-c3ccc(Cl)cc3)c2C1)c1ccco1 | 0.603 |  |
| COc1ccccc1-n1cc(CNC(=O)CCC2(Cc3ccc(SC)cc3)CCC(=O)N2)cn1 (stereo unspecified) | 0.812 |  |
| O=C(NC1CCCCCCC1)C1CCC(=O)N(C2CCCC2)C1 (stereo unspecified) |  | 0.816 |
| COc1ccc(CCN2CC(C(=O)NCC3(C)COC3)CCC2=O)cc1 (stereo unspecified) |  | 0.953 |
| O=C1CCC(CCNCCOc2ccc(F)cc2)N1CCCN1CCOCC1 (stereo unspecified) | 0.898 |  |
| CN(C)c1ncc2c(n1)CCCC2NC1Cc2ccccc2C1 (stereo unspecified) | 0.95 |  |
| O=C(C1CCCC1)N1CCC2(CCCN(Cc3cccnc3)C2=O)C1 (stereo unspecified) |  | 1.1 |
| CO[C@H]1[C@H](NC(=O)C(C)C)c2ccccc2C12CCN(C(=O)COc1ccc(C)cc1)CC2 | 0.826 |  |
| CCN(Cc1ccccc1)Cc1nc(-c2ccc(OC)c(C)c2OC)oc1C | 0.682 |  |
| CC(C)c1nc2cc(C(=O)N3CCCCC3CCN3CCOCC3)ccc2o1 (stereo unspecified) | 0.844 |  |
| CCOC(=O)C1CCCN(C(=O)CC2(c3ccccc3Cl)CC(=O)N(C3CCCC3)C2=O)C1 (stereo unspecified) | 0 |  |
| COc1ccc2cc(CN(Cc3ccco3)C(=O)CCn3ccc(C)n3)c(N3CCCCCC3)nc2c1 | 0.002 |  |
